# Results from publication PMC7819943, “Rice protein-binding microarrays: a tool to detect cis-acting elements near promoter regions in rice”.
# By UniProt entry, the sequences of proteins in these tests, tags left out.
# UniProt Q0JBA9, entry or part of it: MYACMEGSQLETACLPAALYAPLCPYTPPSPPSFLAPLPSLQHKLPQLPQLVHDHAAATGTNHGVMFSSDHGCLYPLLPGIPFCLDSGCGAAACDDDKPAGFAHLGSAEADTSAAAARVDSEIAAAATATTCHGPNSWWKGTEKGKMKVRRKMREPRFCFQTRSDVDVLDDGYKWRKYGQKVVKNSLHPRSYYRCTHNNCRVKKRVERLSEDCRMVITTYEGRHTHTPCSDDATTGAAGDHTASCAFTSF
# The other results are listed elsewhere or left out.
# Target: OsWRKY34 (Oryza sativa, UniProt Q0JBA9 1-250)
# Assay: protein-binding microarray (RPBM); PBS, 2% BSA, 51.3 ng/ul salmon testes DNA, 50 uM zinc acetate, 200 nM TF, 25 C, 1 h; high values mean tight binding
# Conditions: protein: recombinant; tags: N-terminal polyhistidine and DsRed monomer fusion (pET32a); label: CyDye5-dUTP incorporated in the synthesized complementary strand; 3' TTTTT single-stranded linker to array surface; dsDNA, one strand shown
# Method in brief: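 Using Ni–NTA, transcription factors fused N-terminally to polyhistidine and DsRed were purified after expression in E. coli BL21-CodonPlus. These were incubated at 200 nM with a blocked, double-stranded custom Agilent array for 1 h at 25 °C in a buffer containing 50 µM zinc acetate, and the array was washed. The binding signal is per-feature fluorescence intensity (arbitrary units) on an Axon 4000B scanner.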
row,Sequence,binding signal
1,CCCGCCGCGCGCGCGCGTCTCTCGTGCTCGGCTCCGCCGCCGGAGTCACCTAGTGCAG,8180 fluorescence intensity (a.u.)
2,AACCCCAAATTATCGTGTGATTATTTCCTGTTTGCAATTTCGGAGTCACCTAGTGCAG,8750 fluorescence intensity (a.u.)
3,TTCACCCACGCCACGCCGCCACCGCCTCGCTTTTCCTTCTCGGAGTCACCTAGTGCAG,10800 fluorescence intensity (a.u.)
4,GCTCTCTAGGGCTCCGCGTCCCCTGTCTCAGCAAATTTCACGGAGTCACCTAGTGCAG,10600 fluorescence intensity (a.u.)
5,CTTTTGCAACTCAAGCTACTATATCTATGATGGCATCTGACGGAGTCACCTAGTGCAG,8400 fluorescence intensity (a.u.)
6,TTTTTTTTATCTGTGCGATTTCTATTCGTCTCCCTTTTCTCGGAGTCACCTAGTGCAG,10000 fluorescence intensity (a.u.)
7,CTTCTAAACATAGCTTCCACAATCGTCTCCGGGCCCTTCTCGGAGTCACCTAGTGCAG,8320 fluorescence intensity (a.u.)
8,CGTATGATTGTTTGCTACCTTATGATGTCAGATTCCTGATCGGAGTCACCTAGTGCAG,8580 fluorescence intensity (a.u.)
9,TGCCTTTGTCAATTTTTCCATTTGATTCATGTTACTTCATCGGAGTCACCTAGTGCAG,14700 fluorescence intensity (a.u.)
10,TCCACCATTGACCAATGCCACGTCCTGCCAAATCCTCCTCCGGAGTCACCTAGTGCAG,10700 fluorescence intensity (a.u.)
11,GTTATCACGATAGTCGTGCGGTTACTGAGGTATACCGTGACGGAGTCACCTAGTGCAG,9310 fluorescence intensity (a.u.)
12,TGGTCTTCTATGTCACAATTCTAGTTTTGAGGGTAGTTTACGGAGTCACCTAGTGCAG,9670 fluorescence intensity (a.u.)
13,TACTTACACTATCATCATCCAGGCCCATATCCAAAGTGGACGGAGTCACCTAGTGCAG,8070 fluorescence intensity (a.u.)
14,CACAACCGCTTCCGCTTTCCGCTGCCTCCGCTATACTACACGGAGTCACCTAGTGCAG,11700 fluorescence intensity (a.u.)
15,GTGTGCCAAGGTATCCAGAATTCGATCAAATCAATCAATGCGGAGTCACCTAGTGCAG,8730 fluorescence intensity (a.u.)
16,AATTTTTTTTTGCTTACAAAGGGTGAAACTTTCTCTCTCTCGGAGTCACCTAGTGCAG,8500 fluorescence intensity (a.u.)
17,GTCAATCCCAAATTCACCTCTCGCCGTCACGCGAATTCCGCGGAGTCACCTAGTGCAG,8480 fluorescence intensity (a.u.)
18,AATATGTTGAATTCTGTGATCTGCTCATCGATTGGTTTTTCGGAGTCACCTAGTGCAG,11000 fluorescence intensity (a.u.)
19,ACTGTGATTTGTTTGTGTTGAAGTATTGTTTGCTCTAATGCGGAGTCACCTAGTGCAG,10700 fluorescence intensity (a.u.)
20,TCTCGCCGCCGCCTGCGCTTTCCCCTCGCGCTGCCACCTCCGGAGTCACCTAGTGCAG,9320 fluorescence intensity (a.u.)
21,TGATTGACATCTCCTGCTTGGTTTATCAGCGCTTTGCTCTCGGAGTCACCTAGTGCAG,10400 fluorescence intensity (a.u.)

# A portion of the results above, for reference:
row,Sequence,binding signal
10,TCCACCATTGACCAATGCCACGTCCTGCCAAATCCTCCTCCGGAGTCACCTAGTGCAG,10700 fluorescence intensity (a.u.)
11,GTTATCACGATAGTCGTGCGGTTACTGAGGTATACCGTGACGGAGTCACCTAGTGCAG,9310 fluorescence intensity (a.u.)

# (next part)

row,Sequence,binding signal
1,AATTCGAGGCACTTCTGCTCACCCAACCCAACCCAACCTCCGGAGTCACCTAGTGCAG,9330 fluorescence intensity (a.u.)
2,ATTAGCATGTCCAAATTGTTCAGATACCCAACTTATGAATCGGAGTCACCTAGTGCAG,8910 fluorescence intensity (a.u.)
3,GTTGACCCATGTCACCACCCTAGCCACCCAATCGACCTTCCGGAGTCACCTAGTGCAG,8240 fluorescence intensity (a.u.)
4,GCTCCCTTCTATACCTCTCAGTTTTACCGTTGATCCCTTCCGGAGTCACCTAGTGCAG,8750 fluorescence intensity (a.u.)
5,CCCGCCGTTTCGCCCCAAAATTCCGTTCCCGTCCACCTCCCGGAGTCACCTAGTGCAG,10700 fluorescence intensity (a.u.)
6,GCAAGGACCTCCGTAAAGTCCACAAGTATACTCTTCGATCCGGAGTCACCTAGTGCAG,8110 fluorescence intensity (a.u.)
7,CACAACCTGCTGCACTGCATTACCATCCATCTCTTCTTCTCGGAGTCACCTAGTGCAG,12900 fluorescence intensity (a.u.)
8,TTCCGCTCCAGTCTCCACCGCACCCGCCCACCCGCGCGCCCGGAGTCACCTAGTGCAG,9350 fluorescence intensity (a.u.)
9,TTTCGCATTTATCGCGCTTGTATTTATTCTCTAATGACATCGGAGTCACCTAGTGCAG,9030 fluorescence intensity (a.u.)
10,CAGCACCGAAACGGCATTTTCGTCCTCGATGTTCGTCCTCCGGAGTCACCTAGTGCAG,8810 fluorescence intensity (a.u.)
11,TTCTGGGCTGTGTGGGTTGGAATTCCTGGGGAATTTAACTCGGAGTCACCTAGTGCAG,8290 fluorescence intensity (a.u.)
12,AGGCTGTTTTCTTAAGTCCACTTTTCCAACTTCAACTCACCGGAGTCACCTAGTGCAG,10200 fluorescence intensity (a.u.)
13,GATCATAACTAATTGCCTACATGCATACATACCTTATATTCGGAGTCACCTAGTGCAG,8030 fluorescence intensity (a.u.)
14,CAAGACACTCTTCTGTTCCGTCACGGCGACTGTAACACCCCGGAGTCACCTAGTGCAG,8320 fluorescence intensity (a.u.)
15,CACACGCAGCTCACAAAAGACCGGTTCCACACTTCCACGACGGAGTCACCTAGTGCAG,8640 fluorescence intensity (a.u.)
16,CTACTCATCTCTTTCACATGGTCTATTAGAGCTCTAGTATCGGAGTCACCTAGTGCAG,10100 fluorescence intensity (a.u.)
17,AACTGCCAGTTTTGTCTCTCCTGCCGTCGTTTTGTTTACGCGGAGTCACCTAGTGCAG,9140 fluorescence intensity (a.u.)
18,GGGCTGGATCCACCAATTTAGATTTGAGCTCAACATGAACCGGAGTCACCTAGTGCAG,8520 fluorescence intensity (a.u.)
19,GGTATCTGTTGCTGCTTGCTGGTTCTCGTGCTATTGTTCTCGGAGTCACCTAGTGCAG,19900 fluorescence intensity (a.u.)
20,CAAACCTCGCGCCGCACTGCCGCCGCCGCCAAAGCCGCAACGGAGTCACCTAGTGCAG,9170 fluorescence intensity (a.u.)
21,CGGGCTTTTTTCTCTTGAACTCGGTTAAATGTTCGGCGATCGGAGTCACCTAGTGCAG,8210 fluorescence intensity (a.u.)

# 4 records drawn at random from those above, as already listed:
row,Sequence,binding signal
3,GTTGACCCATGTCACCACCCTAGCCACCCAATCGACCTTCCGGAGTCACCTAGTGCAG,8240 fluorescence intensity (a.u.)
2,ATTAGCATGTCCAAATTGTTCAGATACCCAACTTATGAATCGGAGTCACCTAGTGCAG,8910 fluorescence intensity (a.u.)
4,GCTCCCTTCTATACCTCTCAGTTTTACCGTTGATCCCTTCCGGAGTCACCTAGTGCAG,8750 fluorescence intensity (a.u.)
21,CGGGCTTTTTTCTCTTGAACTCGGTTAAATGTTCGGCGATCGGAGTCACCTAGTGCAG,8210 fluorescence intensity (a.u.)

# Further records follow:

row,Sequence,binding signal
1,CGTGTCCACCATTTCCGTTTGGTTTTACTCCACTAATAAGCGGAGTCACCTAGTGCAG,10500 fluorescence intensity (a.u.)
2,CCGCCGCCGCTCGCCGCCGCATTGCGTTACTCGAGCTCGCCGGAGTCACCTAGTGCAG,8710 fluorescence intensity (a.u.)
3,CTGACTTTATCACACGTCTACGATTTGCCACTGACTTTATCGGAGTCACCTAGTGCAG,9790 fluorescence intensity (a.u.)
4,TCCCGCTGCTTGGAGTCTGTTTTTAGCCGCCGTAGTTTCTCGGAGTCACCTAGTGCAG,10700 fluorescence intensity (a.u.)
5,ACACTCTTTCTTACTCCTGATGCTCTTTCTTGATATAACCCGGAGTCACCTAGTGCAG,9340 fluorescence intensity (a.u.)
6,AGTAGCAGCGGCGGCGGCGGAGGGAGGGGAGGTGAACCAGCGGAGTCACCTAGTGCAG,9420 fluorescence intensity (a.u.)
7,GGGGTATGAAATGTTTTTTTTTTCCTTTACGTTTCTTTTTCGGAGTCACCTAGTGCAG,15400 fluorescence intensity (a.u.)
8,CCCTACGACGCCTACGACTGCCAGATCACATACATGGACCCGGAGTCACCTAGTGCAG,9600 fluorescence intensity (a.u.)
9,ACTTTTTAAAACATATTTGACCGTTCTTCTTATTAAAAAACGGAGTCACCTAGTGCAG,8850 fluorescence intensity (a.u.)
10,AGTCATCTTCAGCTTTTGATTCACAACATCTTCATTCTGACGGAGTCACCTAGTGCAG,8630 fluorescence intensity (a.u.)
11,TGGTGTTGGTTCTAAAATTTAAACATTGTGACTTTCCTTACGGAGTCACCTAGTGCAG,11200 fluorescence intensity (a.u.)
12,TCAACCTCGCCTACAACAACCTCACCGGTGCCGTGCCATCCGGAGTCACCTAGTGCAG,8540 fluorescence intensity (a.u.)
13,CGTGCGGGCTCTACCAATCCACACCACACCACCCTATAAACGGAGTCACCTAGTGCAG,9780 fluorescence intensity (a.u.)
14,CTGTTGCTGTCGCCGGATCGCCTTTTGCCCTCCCGTACTTCGGAGTCACCTAGTGCAG,8570 fluorescence intensity (a.u.)
15,ATGCCTGCTCCTAGTGTATCGTTGGGATCTAGCTTGTTCTCGGAGTCACCTAGTGCAG,8920 fluorescence intensity (a.u.)
16,TTGGCTTTCCTTTCTTCCGATCCAAGCTACTCTCTCTCTCCGGAGTCACCTAGTGCAG,8220 fluorescence intensity (a.u.)
17,GTTTGTATGTGATTTTGTAATGCTGAATATATGCTCTTTCCGGAGTCACCTAGTGCAG,11000 fluorescence intensity (a.u.)
18,GTCACAGGTGCTTATTTGTGCTACCATTTAGTCCATTGTACGGAGTCACCTAGTGCAG,10800 fluorescence intensity (a.u.)
19,TTTATGCCTGTTCTGTTTATTTGTTCTTAAGTGCTTTGCCCGGAGTCACCTAGTGCAG,10500 fluorescence intensity (a.u.)
20,GGCTGTGTTTATTGGCTGTGTTTAGTTCCCTTCAAACTTCCGGAGTCACCTAGTGCAG,9610 fluorescence intensity (a.u.)
21,GTTCTCTCATGCATTGCCTCGTTTTTCTCTATAGACTATCCGGAGTCACCTAGTGCAG,9480 fluorescence intensity (a.u.)

row,Sequence,binding signal
1,TTTTACCTCTCTCACCATTAACTCTTGCTACATTAGACTTCGGAGTCACCTAGTGCAG,9670 fluorescence intensity (a.u.)
2,TCGGTCGGGTCGGGTCGGGTCGCGTCGCGTGGGCTGCATGCGGAGTCACCTAGTGCAG,12200 fluorescence intensity (a.u.)
3,AACCCGTCTGTCCATCCTTTCATGACAATAGTATTTTATTCGGAGTCACCTAGTGCAG,9770 fluorescence intensity (a.u.)
4,GGTGTGGACCCTTTTCCGTCCCAATTTACACTTCCGTACCCGGAGTCACCTAGTGCAG,8550 fluorescence intensity (a.u.)
5,AATTTCCTCACATCGACCGTTGACTCATCCACTTCACTGCCGGAGTCACCTAGTGCAG,16200 fluorescence intensity (a.u.)
6,AGGATTTTATTATTTTTCCGGCTCGAATTGCCACGTAAGCCGGAGTCACCTAGTGCAG,8080 fluorescence intensity (a.u.)
7,TATAAAGTGGTCCACCTCTCCCCATCCACTCGTCCCTTTCCGGAGTCACCTAGTGCAG,9000 fluorescence intensity (a.u.)
8,TAAACTCCATATTATATAACATCCCCAACTATGCTGTTTTCGGAGTCACCTAGTGCAG,8150 fluorescence intensity (a.u.)
9,ACCTCTGTTTTCATGGGCTAGTGGCCCAGTACCTCACTGCCGGAGTCACCTAGTGCAG,8930 fluorescence intensity (a.u.)
10,AACTCTCTCCGCTCGCACGCCGTTCCATATATAAGACCACCGGAGTCACCTAGTGCAG,9840 fluorescence intensity (a.u.)
11,CGCAATCCGCCGCTTGCCTTCGCCGCCGCCCGCGCTGAATCGGAGTCACCTAGTGCAG,9490 fluorescence intensity (a.u.)
12,GCCCCTCACCTCACCTCACCTCTCCATCCACGATAATATCCGGAGTCACCTAGTGCAG,8210 fluorescence intensity (a.u.)
13,CCATCTATATATTAAAGCTGCGTCCGCCACTGCTTTCTTCCGGAGTCACCTAGTGCAG,11000 fluorescence intensity (a.u.)
14,GAATTAGACCATTTAACTCGTCGCCACCACCACCAGTAAACGGAGTCACCTAGTGCAG,11500 fluorescence intensity (a.u.)
15,GACGACACGAGCACTCCCAGCCGCGAACACCGCAAAATCACGGAGTCACCTAGTGCAG,10200 fluorescence intensity (a.u.)
16,GCTCGCGTAATCACGTGTCCGCCTGGTGTATGTCCCTCTCCGGAGTCACCTAGTGCAG,9200 fluorescence intensity (a.u.)
17,TTCTCTCTCTATCTCTCATTTATATATTTAATATATTTGTCGGAGTCACCTAGTGCAG,9250 fluorescence intensity (a.u.)
18,GAGCATTATTGTATTTCTAGACCATGTAGGCTATGACACACGGAGTCACCTAGTGCAG,8470 fluorescence intensity (a.u.)
19,TATGGTGAGTCTCTTCTCGTGTTCCTTTTGACTTGTAGATCGGAGTCACCTAGTGCAG,10600 fluorescence intensity (a.u.)
20,TACTTATCCGATTTATGATCCGATTATGTCGTTGTTATTACGGAGTCACCTAGTGCAG,8540 fluorescence intensity (a.u.)
21,GAATAAATATCTCTATTCCTGCGTCATCCCCATCTCTCGCCGGAGTCACCTAGTGCAG,8770 fluorescence intensity (a.u.)
